# No constants are given. Whether binding was seen depends on the method and setting. In cells and extracts the contact can be indirect. Some binding calls cover weakened binding; strength is not graded here. Sequences can lack the tags named with a protein.
# Chains of the proteins cited; added tags and fusions are not shown.
# UniProt Q7Z434: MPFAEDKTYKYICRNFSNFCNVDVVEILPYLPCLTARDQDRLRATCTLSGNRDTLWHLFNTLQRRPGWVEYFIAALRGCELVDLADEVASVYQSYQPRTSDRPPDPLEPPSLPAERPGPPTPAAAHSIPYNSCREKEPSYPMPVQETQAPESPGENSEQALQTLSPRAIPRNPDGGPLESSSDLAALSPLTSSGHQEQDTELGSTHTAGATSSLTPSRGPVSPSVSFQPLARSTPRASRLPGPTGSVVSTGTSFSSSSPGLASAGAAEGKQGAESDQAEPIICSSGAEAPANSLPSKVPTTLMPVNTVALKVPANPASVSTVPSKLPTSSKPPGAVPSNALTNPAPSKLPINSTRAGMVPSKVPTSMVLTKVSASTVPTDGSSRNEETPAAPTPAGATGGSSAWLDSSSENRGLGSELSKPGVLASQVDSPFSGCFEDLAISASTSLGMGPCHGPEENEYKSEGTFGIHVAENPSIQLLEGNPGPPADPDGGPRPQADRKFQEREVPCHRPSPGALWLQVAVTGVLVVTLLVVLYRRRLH
# B1: HA-MDA5 (melanoma differentiation–associated protein 5) (protein, UniProt Q9BYX4 1-1025)
# chain: MSNGYSTDENFRYLISCFRARVKMYIQVEPVLDYLTFLPAEVKEQIQRTVATSGNMQAVELLLSTLEKGVWHLGWTREFVEALRRTGSPLAARYMNPELTDLPSPSFENAHDEYLQLLNLLQPTLVDKLLVRDVLDKCMEEELLTIEDRNRIAAAENNGNESGVRELLKRIVQKENWFSAFLNVLRQTGNNELVQELTGSDCSESNAEIENLSQVDGPQVEEQLLSTTVQPNLEKEVWGMENNSSESSFADSSVVSESDTSLAEGSVSCLDESLGHNSNMGSDSGTMGSDSDEENVAARASPEPELQLRPYQMEVAQPALEGKNIIICLPTGSGKTRVAVYIAKDHLDKKKKASEPGKVIVLVNKVLLVEQLFRKEFQPFLKKWYRVIGLSGDTQLKISFPEVVKSCDIIISTAQILENSLLNLENGEDAGVQLSDFSLIIIDECHHTNKEAVYNNIMRHYLMQKLKNNRLKKENKPVIPLPQILGLTASPGVGGATKQAKAEEHILKLCANLDAFTIKTVKENLDQLKNQIQEPCKKFAIADATREDPFKEKLLEIMTRIQTYCQMSPMSDFGTQPYEQWAIQMEKKAAKEGNRKERVCAEHLRKYNEALQINDTIRMIDAYTHLETFYNEEKDKKFAVIEDDSDEGGDDEYCDGDEDEDDLKKPLKLDETDRFLMTLFFENNKMLKRLAENPEYENEKLTKLRNTIMEQYTRTEESARGIIFTKTRQSAYALSQWITENEKFAEVGVKAHHLIGAGHSSEFKPMTQNEQKEVISKFRTGKINLLIATTVAEEGLDIKECNIVIRYGLVTNEIAMVQARGRARADESTYVLVAHSGSGVIEHETVNDFREKMMYKAIHCVQNMKPEEYAHKILELQMQSIMEKKMKTKRNIAKHYKNNPSLITFLCKNCSVLACSGEDIHVIEKMHHVNMTPEFKELYIVRENKALQKKCADYQINGEIICKCGQAWGTMMVHKGLDLPCLKIRNFVVVFKNNSTKKQYKKWVELPITFPNLDYSECCLFSDED
# Molecular target: Myc-MAVS (mitochondrial antiviral signaling protein) (UniProt Q7Z434)
# Experiment: co-IP
binder,measurement,value
B1,binding,binds
